# “And” between values parts separate entries of the source, which are not always exact repeats. Identical values can stand only once. The list shows a part of the results. Many values rest on one well or one pass, so single values are uncertain.
# Tests used:
# [1] = tested on: MEPP (mouse ovarian epithelium Trp53/Pten KO); assay: cell viability relative to untreated (fraction); higher = less growth inhibition; conditions: 5 µM; 3 days
# [2] = tested on: PREPP (mouse prostate epithelium Trp53/Pten KO); assay: as above; conditions: 5 µM; 3 days
SMILES,cell viability [1],cell viability [2]
OC[C@H]1O[C@@H](O[C@@H]2OC=C[C@H]3[C@H](O)[C@@H]4O[C@]4(CO)[C@@H]23)[C@H](O)[C@@H](O)[C@@H]1O,1.21,0.994
C[C@@H]1O[C@@H](OC[C@H]2O[C@@H](Oc3c(-c4ccc(OCCO)c(OCCO)c4)oc4cc(OCCO)cc(O)c4c3=O)[C@H](O)[C@@H](O)[C@@H]2O)[C@H](O)[C@H](O)[C@H]1O,0.81,0.851
CN1CCN2c3ccccc3Cc3ccccc3C2C1 (configuration not stated),1.11,0.765
Nc1ccccc1S(=O)(=O)O,0.912,1.21
CN1C(=O)/C(=C2/C(=O)Nc3ccccc32)c2ccccc21,0.889,0.949
CC(C)(O)CC[C@@H](O)[C@](C)(O)[C@H]1CC[C@@]2(O)C3=CC(=O)[C@@H]4C[C@@H](O)[C@@H](O)C[C@]4(C)[C@H]3CC[C@]12C,1.54,0.91
CCCOc1ccc(C(=O)OCCN(CC)CC)cc1N,0.991,0.85
CC(C)(CO)[C@@H](O)C(=O)NCCCO,1.15,0.689
CN(N=O)C(=O)N[C@@H](C=O)[C@@H](O)[C@H](O)[C@H](O)CO,1.03,0.888
O=C(O)Cc1cccc(O)c1,1.33,1.06
CC(C)CC(=O)C(=O)O,1.27,0.93
Oc1c(Cl)cc(Cl)c2cccnc12,0.949,0.406
COC(=O)/C=C/C(=O)OC,0.984,0.833
OCc1ccccc1,0.963,0.989
O=C(O)[C@@H]1C[C@@H](O)CN1,0.93,1.05
O=C(O)CNC(=O)Cc1ccccc1,0.947,0.977
C=C[C@]1(C)C[C@@H](OC(=O)CSC(C)(C)CNC(=O)[C@H](N)C(C)C)[C@]2(C)[C@H](C)CC[C@]3(CCC(=O)[C@H]32)[C@@H](C)[C@@H]1O,1.23,1.08
COc1cc(/C=C/c2ccc(O)cc2)cc(OC)c1,0.988,0.835
C=CC1=C(C(=O)O)N2C(=O)[C@@H](NC(=O)/C(=N\O)c3csc(N)n3)[C@H]2SC1,1.15,0.919
CC(C)CC(=O)N[C@H](C(=O)N[C@H](C(=O)N[C@@H](CC(C)C)[C@@H](O)CC(=O)N[C@@H](C)C(=O)N[C@@H](CC(C)C)[C@@H](O)CC(=O)O)C(C)C)C(C)C,1.09,0.909
CCCCCCCC/C=C\CCCCCCCCCCCC(=O)O,0.827,1.01

SMILES,cell viability [1],cell viability [2]
COCC1=C(C(=O)OC(C)OC(=O)OC(C)C)N2C(=O)[C@@H](NC(=O)/C(=N\OC)c3csc(N)n3)[C@H]2SC1 (some centres not stated),0.844,0.974
NCCCNCCCCNCCCN,0.882 and 1.03,0.93 and 0.816
OC[C@H]1O[C@@H](Oc2cc(O)cc(/C=C/c3ccc(O[C@@H]4O[C@H](CO)[C@@H](O)[C@H](O)[C@H]4O)cc3O)c2)[C@H](O)[C@@H](O)[C@@H]1O,1,0.866
CCn1cc(C(=O)O)c(=O)c2ccc(C)nc21,0.884,0.891
O=C(O)c1ccco1,0.828,0.951
O=C(O)CCCC(=O)O,0.9,1.09
CC(O)CO (configuration not stated),1.13,0.897
CC[C@]1(O)C[C@@H]2CN(CCc3c([nH]c4ccccc34)[C@@](C(=O)OC)(c3cc4c(cc3OC)N(C)[C@H]3[C@@](O)(C(=O)OC)[C@H](OC(C)=O)[C@]5(CC)C=CCN6CC[C@]43[C@@H]65)C2)C1,0.323 and 0.589,0.707 and 0.59
O=C1c2cccc(O)c2C(=O)c2c(O)cccc21,0.939,0.899
CC/C=C\C/C=C\C/C=C\CCCCCCCC(=O)O,1.04,1.02
O=c1cc(-c2ccc(O[C@@H]3O[C@H](CO)[C@@H](O)[C@H](O)[C@H]3O)cc2)oc2cc(O)c([C@@H]3O[C@H](CO)[C@@H](O)[C@H](O)[C@H]3O[C@@H]3OC[C@H](O)[C@H](O)[C@H]3O)c(O)c12,1.03,0.909
O=c1ccn([C@@H]2O[C@H](CO)[C@@H](O)[C@H]2O)c(=O)[nH]1,1.16,0.99
COc1cc2c(cc1O)C[C@H]1c3cc(O)c(OC)cc3CC[N@@+]1(C)C2,0.936,1.06
CC(=O)Oc1cc(C)c(OC(C)=O)c2ccccc12,1.03,0.946
COc1cc(C(=O)OCCCCNC(=N)N)cc(OC)c1O,1.77,1.01
CC[C@H]1OC(=O)[C@H](C)[C@@H](O[C@H]2C[C@@](C)(OC)[C@@H](O)[C@H](C)O2)[C@H](C)[C@@H](O[C@@H]2O[C@H](C)C[C@H](N(C)C)[C@H]2O)[C@](C)(O)C[C@@H](C)C(=O)[C@H](C)[C@@H](O)[C@]1(C)O,0.831,0.816
CCS(=O)(=O)CCn1c([N+](=O)[O-])cnc1C,1.02,0.953
OCC(CO)N[C@H]1C[C@](O)(CO)[C@@H](O)[C@H](O)[C@H]1O,1.33,0.948
C[C@]1(Cn2ccnn2)[C@H](C(=O)O)N2C(=O)C[C@H]2S1(=O)=O,0.936,0.76
Nc1ncnc2c1ncn2[C@@H]1O[C@H](COP(=O)(O)O)[C@@H](O)[C@H]1O,0.958,0.955
O=C1C[C@@H](c2ccc(O)cc2)Oc2cc(O)cc(O)c21,1.29,0.97

SMILES,cell viability [1],cell viability [2]
CC(C)(O/N=C(\C(=O)N[C@@H]1C(=O)N2C(C(=O)[O-])=C(C[n+]3ccccc3)CS[C@H]12)c1csc(N)n1)C(=O)O,0.747 and 0.82,0.919 and 0.953
O=C1CC[C@H](C(=O)O)N1,0.953,0.916
CC(=O)O[C@]1(C(C)=O)CC[C@H]2[C@@H]3C[C@H](C)C4=CC(=O)CC[C@]4(C)[C@H]3CC[C@@]21C,1.02,0.928
C/C(=C/C(=O)O)C(=O)O,0.853,0.968
CN1CC(=O)NC1=N,1.15,0.993
CC(C)=CCNc1ncnc2nc[nH]c12,1.05,0.836
CC(=O)N[C@@H](CCC(N)=O)C(=O)O,1.08,0.908
CSC[C@H](N)C(=O)O,0.888,1.28
O=C(O)CCCCC(=O)O,0.961,1.07
O=C(O)c1ccncc1,1.28,0.996
COc1ccc(-c2cc(=O)c3c(OC)c(OC)c(OC)c(OC)c3o2)cc1OC,1.35,0.798
CN1CCN(c2cc3c(cc2F)c(=O)c(C(=O)O)cn3-c2ccc(F)cc2)CC1,1.12,0.803
CC(CN(C)C)CN1c2ccccc2CCc2ccccc21 (configuration not stated),1.13,0.921
OC[C@H]1O[C@H](OC[C@H]2O[C@H](O[C@]3(CO)O[C@H](CO)[C@@H](O)[C@@H]3O)[C@H](O)[C@@H](O)[C@@H]2O)[C@H](O)[C@@H](O)[C@H]1O,1.05,0.868
NC(=O)c1ccccc1O,1.22,0.977
O=C(O)CCCCCCCCC(=O)O,1.2,0.882
CCCCCCCCC[C@H](O)CC(=O)CCc1ccc(O)c(OC)c1,1.15,0.252
C[C@H](CCC(=O)O)[C@H]1CC[C@H]2[C@@H]3C(=O)C[C@@H]4CC(=O)CC[C@]4(C)[C@H]3CC(=O)[C@]12C,0.9,0.962
OB1OCc2cc(F)ccc21,1.25,0.885
O=C(O)c1cc(/N=N/c2ccc(O)c(C(=O)O)c2)ccc1O,1.22,1.09
O=C(O)c1ccc(O)c(O)c1O,0.886,0.982

SMILES,cell viability [1],cell viability [2]
O=c1[nH]c(=O)c2ccccc2[nH]1,0.897,1.2
Cn1c(=O)c2nc[nH]c2n(C)c1=O,1.27,0.924
C/C=C(\C)C(=O)O[C@@H]1c2c(ccc3ccc(=O)oc23)OC(C)(C)[C@@H]1OC(C)=O,1.14,0.858
COC(=O)C1=CO[C@@H](O[C@@H]2O[C@H](CO)[C@@H](O)[C@H](O)[C@H]2O)[C@@H]2C(CO)=CC[C@H]12,1.77,0.906
CCOC(=O)CCC(=O)O[C@H]1[C@H](O[C@@H]2[C@@H](C)[C@H](O[C@H]3C[C@@](C)(OC)[C@@H](O)[C@H](C)O3)[C@@H](C)C(=O)O[C@H](CC)[C@@](C)(O)[C@H](O)[C@@H](C)C(=O)[C@H](C)C[C@@]2(C)O)O[C@H](C)C[C@@H]1N(C)C,0.834,0.773
C=CC[C@@H]1/C=C(\C)C[C@H](C)C[C@H](OC)[C@H]2O[C@@](O)(C(=O)C(=O)N3CCCC[C@H]3C(=O)O[C@H](/C(C)=C/[C@@H]3CC[C@@H](O)[C@H](OC)C3)[C@H](C)[C@@H](O)CC1=O)[C@H](C)C[C@@H]2OC,0.961,0.905
O=C1c2cccc3c2[C@H](CCC3)CN1[C@@H]1CN2CCC1CC2,0.81,0.864
CO/N=C(\C(=O)N[C@@H]1C(=O)N2C(C(=O)OC(C)OC(C)=O)=C(COC(N)=O)CS[C@H]12)c1ccco1 (some centres not stated),1.16,1.04
C=C[C@]1(C)C[C@@H](OC(=O)CS[C@@H]2C[C@H]3CC[C@@H](C2)N3C)[C@]2(C)[C@H](C)CC[C@]3(CCC(=O)[C@H]32)[C@@H](C)[C@@H]1O,0.886,1.18
COc1cc(C=O)ccc1O,0.801,0.944
CC(=O)N[C@@H](C)C(=O)O,0.913,0.721
OC[C@@H](O)[C@@H](O)CO,1.08,0.962
O=C(/C=C/c1ccc(O)c(O)c1)O[C@@H]1[C@H](O)C[C@@](O)(C(=O)O)C[C@H]1OC(=O)/C=C/c1ccc(O)c(O)c1,0.939,0.889
COc1cc(NC(C)CCCN)c2ncccc2c1 (configuration not stated),1.18,0.779
NC(=O)c1ccc[n+]([C@@H]2O[C@H](COP(=O)([O-])OP(=O)(O)OC[C@H]3O[C@@H](n4cnc5c(N)ncnc54)[C@H](O)[C@@H]3O)[C@@H](O)[C@H]2O)c1,1.07,1.16
COc1cc2c(cc1OC)[C@H]1[C@@H](C)c3ccc(OC)c(OC)c3CN1CC2,0.819,0.878
Clc1ccc2c(c1)CCc1cccnc1C2=C1CCNCC1,1.16,0.827
C[C@H]1[C@H](C)CC[C@]2(C(=O)O[C@@H]3O[C@H](CO[C@@H]4O[C@H](CO)[C@@H](O[C@@H]5O[C@H](C)[C@H](O)[C@@H](O)[C@H]5O)[C@H](O)[C@H]4O)[C@@H](O)[C@H](O)[C@H]3O)CC[C@]3(C)C(=CC[C@@H]4[C@@]5(C)C[C@@H](O)[C@H](O)[C@@](C)(CO)[C@@H]5CC[C@]43C)[C@H]12,2.23,0.883

# From the supplement of paper PMC12873370
